Data taken from paper PMC11477194, “3-Alkoxy-1-Benzyl-5-Nitroindazole Derivatives Are Potent Antileishmanial Compounds” (International Journal of Molecular Sciences, 2024).

These compounds were tested on L. mexicana intracellular amastigotes (assay: Intracellular amastigote assay, L. mexicana). Conditions: selectivity index for amastigotes, CC50/EC50, L. mexicana.
Format: cell-based
From the text: (§1) The strains used in this research were MHOM/BR/77/LTB0016 of L. amazonensis from the Pedro Kouri Institute of Tropical Medicine Cuba strains collection, MHOM/FR/78/LEM75 of L. infantum from the Department of Parasitology, Faculty of Pharmacy of the Complutense University of Madrid Spain, and MNYC/BZ/62/M379 of L. mexicana from the Laboratory of Molecular Immunobiochemistry and Heart Diseases UNAM-INC Mexico Research Unit. The parasites were obtained from the skin lesions of previously infected BALB/c mice and maintained at 26 °C in Schneider medium (SIGMA, St. Louis, MO, USA) and supplemented with antibiotics (penicillin sodium 200 IU/mL and streptomycin 200 μg/mL SIGMA, St. Louis, MO, USA) and 10% fetal bovine serum (FBS, SIGMA, St. Louis, MO, USA), and inactivated with heat (56 °C, 30 min). The promastigotes, once isolated, were kept in the exponential multiplication phase by successive subcultures every 3 or 4 days until the time of use.
Intracellular amastigote assay: Macrophages were seeded in 96-well plates at an initial density of 10^5 cells/mL in a final volume of 200 µL per well. After 2 h of incubation at 33 °C and 5% CO2, the cell monolayer was infected with a culture of promastigotes in the stationary phase of growth at a ratio of 10:1 (promastigotes: macrophages) and incubated under the same conditions for 4 h. The compounds were tested in serial dilutions of 1/2.5 (15–0.02 μM). The treated cultures were then incubated for 48 h under similar conditions. After incubation, the RPMI medium was removed and replaced with Schneider’s medium. Cultures were incubated for 72 h at 26 °C to allow the surviving amastigotes to transform into promastigotes and replicate.
(§2) Every concentration of the test compounds was assessed in quadruplicate.
(§3) Cell viability was assessed using the resazurin transformation method. After the incubation period, 20 μL of 3 mM resazurin solution prepared in sterile PBS was added to each well. Reading was performed at 540 nm excitation and 590 nm emission wavelengths after 8 h of incubation in a 96-well plate reader (SUMA®, Habana, Cuba). The mean fluorescence intensity was calculated for each concentration. From the mean values of fluorescence and the corresponding product concentrations, a non-linear fit to the Emax sigmoid model was performed, and the mean inhibitory concentrations (IC50), mean effective concentrations (EC50), and the mean cytotoxic concentration (CC50) were estimated. The selectivity index was calculated as SIp = CC50/IC50 and SIa = CC50/EC50 for the promastigote and amastigote stages, respectively.

Structure (SMILES)	SIa
O=[N+]([O-])c1ccc2c(c1)c(OCCN1CCCCC1)nn2Cc1ccccc1 [NV7]	8
CNCCOc1nn(Cc2ccccc2)c2ccc([N+](=O)[O-])cc12 [NV13]	5
CN(C)CCCCCOc1nn(Cc2ccccc2)c2ccc([N+](=O)[O-])cc12 [NV14]	0.3
CNCCCCCOc1nn(Cc2ccccc2)c2ccc([N+](=O)[O-])cc12 [NV15]	4
O=[N+]([O-])c1ccc2c(c1)c(OCCCCCN1CCCCC1)nn2Cc1ccccc1 [NV16]	5

Each compound was assayed on L. mexicana promastigotes (assay: Susceptibility assay in promastigotes, L. mexicana). Conditions: selectivity index for promastigotes, CC50/IC50, L. mexicana.
Format: cell-based
From the text: as §1
Susceptibility assay in promastigotes: Promastigotes culture in the exponential growth phase were seeded in 96-well plates (10^6 parasites/mL) at a final volume of 200 μL/well. Compounds were tested in serial 1/2.5 dilutions (130–0.2 μM). The treated cultures were incubated for 72 h at 26 °C.
as §2, §3

Structure (SMILES)	SIp
CN(C)CCOc1nn(Cc2ccccc2)c2ccc([N+](=O)[O-])cc12 [NV4]	32
NCCCOc1nn(Cc2ccccc2)c2ccc([N+](=O)[O-])cc12 [NV9]	17
NCCOc1nn(Cc2ccccc2)c2ccc([N+](=O)[O-])cc12 [NV10]	12
O=[N+]([O-])c1ccc2c(c1)c(OCCBr)nn2Cc1ccccc1 [NV11]	0.5
O=[N+]([O-])c1ccc2c(c1)c(OCCCCCBr)nn2Cc1ccccc1 [NV12]	1
NCCCCCOc1nn(Cc2ccccc2)c2ccc([N+](=O)[O-])cc12 [NV17]	3
